This assay relates to BDF1 mice, P288 leukemia ip, survival T/C. Kind of assay: NCI In Vivo Anticancer Drug Screen. Data for tumor model P288 Lymphocytic Leukemia (intraperitoneal) in B6D2F1 (BDF1) mice. The settings on record: higher T/C = longer survival. The protocol:
The antitumor activity of compounds was measured in mice bearing transplantable tumors. Survival or tumor size were measured and the results are expressed as the measurement made in the treated group (T) divided by the measurement made in the vehicle treated control group (C). The tumor model used in this assay is P288 Lymphocytic Leukemia (intraperitoneal) in B6D2F1 (BDF1) mice

Where [1] appears, read: T/C endpoint: survival time, mean or median, dose: 125.0 mg/kg/injection, schedule: Q01DX010 (ip), vehicle: saline.
Setting [2] is: T/C endpoint: survival time, mean or median, dose: 125.0 mg/kg/injection, schedule: Q01DX Z (ip), vehicle: carboxymethylcellulose (CMC).
Where [3] appears, read: T/C endpoint: survival time, mean or median, dose: 250.0 mg/kg/injection, schedule: Q01DX Z (ip), vehicle: carboxymethylcellulose (CMC).
[4] abbreviates: T/C endpoint: survival time, mean or median, dose: 500.0 mg/kg/injection, schedule: Q01DX Z (ip), vehicle: carboxymethylcellulose (CMC).
Setting [5] is: T/C endpoint: survival time, mean or median, dose: 1000.0 mg/kg/injection, schedule: Q01DX Z (ip), vehicle: carboxymethylcellulose (CMC).

SMILES strings stand for the structures. The list is a part of this screen's results and no random one: it gathers tests that were run many times, whatever their T/C, doses with no T/C, and many T/C values between a quarter and a half above the control. Other doses and runs of a compound stand elsewhere. T/C: endpoint of the treated group in % of that of the vehicle group. Some entries give survivors of the animals treated and no T/C: the source files T/C as zero there, which appears to mark a toxic dose or a test without result, not a measured value. Some survivor counts are full or nearly so, which does not show that the dose was tolerated: the source hardly ever lists a survival T/C far under the control, and the zero likely stands for such cases as well. Survivors were counted at the toxicity check, usually on the fifth day, unless a day is given; later deaths do not show. Schedules are NCI's codes, read here as Q, the interval in days (D) or hours (H), X, the number of doses. Some schedule codes hold Z or #, which are not explained here. Where survival is the endpoint, the PubChem record calls one and a half times the control and up active, and a quarter to a half above the control has no call in these data; cut-offs in other NCI protocols can differ.

With `O=CCC(O)C(O)C(O)CO` (centres undefined), the T/C (T/C endpoint: survival time, mean or median, dose: 31.0 mg/kg/injection, schedule: Q01DX Z (ip), vehicle: carboxymethylcellulose (CMC)) was 126 % of control. Besides, the survivor count is given as 6 of 6 (T/C endpoint: survival time, mean or median, dose: 62.5 mg/kg/injection, schedule: Q01DX010 (ip), vehicle: saline); 6 of 6 under setting [1]; 6 of 6 under setting [2]; 6 of 6 under setting [3]; 6 of 6 under setting [4]; 6 of 6 under setting [5].

Consider `O=c1[nH]c(=O)n(C2CC(O)C(CO)O2)cc1I` (centres undefined), for which the T/C reads like this: under setting [1], 127 % of control; under setting [2], 129 % of control; (T/C endpoint: survival time, mean or median, dose: 250.0 mg/kg/injection, schedule: Q01DX010 (ip), vehicle: saline) 133 % of control; (T/C endpoint: survival time, mean or median, dose: 500.0 mg/kg/injection, schedule: Q01DX010 (ip), vehicle: saline) 127 % of control. Also, the survivor count is 6 of 6 under setting [2], 6 of 6 under setting [3], 6 of 6 under setting [4] and 5 of 6 under setting [5].

`CCCCCCCCCCCCNCCCCCCCCCCCC`: the survivor count is recorded as 4 of 6 (T/C endpoint: survival time, mean or median, dose: 120.0 mg/kg/injection, schedule: Q01DX Z (ip), vehicle: carboxymethylcellulose (CMC)) and 4 of 6 (T/C endpoint: survival time, mean or median, dose: 240.0 mg/kg/injection, schedule: Q01DX Z (ip), vehicle: carboxymethylcellulose (CMC)).

With `CN1c2c(nc(N)[nH]c2=O)NCC1CCNc1ccc(C(=O)NC(CCC(=O)O)C(=O)O)cc1` (centres undefined), the T/C is, setting by setting: (T/C endpoint: median survival time, dose: 100.0 mg/kg/injection, schedule: Q01DX009 (ip), vehicle: other) 129 % of control; (T/C endpoint: median survival time, dose: 200.0 mg/kg/injection, schedule: Q01DX009 (ip), vehicle: other) 141 % of control.

The record behind these values is PubChem BioAssay AID216 (DTP/NCI, 2004).
